{"source": "the supplement of paper PMC10373366", "key": {"[1]": {"system": "A2780", "assay": "cell growth inhibition ratio vs untreated control (CCK8); higher = stronger inhibition of cell viability", "settings": "10 µM; 48 h", "procedure": "(§1)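 Natural product library (Topscience) screened at 10 µM final concentration for 48 h on ovarian cancer A2780 cells and patient-derived ovarian cancer cells (PDC) in 96-well plates; viability read by CCK8 and reported as inhibition ratio (%) relative to untreated control. Single-dose primary screen.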"}, "[2]": {"system": "patient-derived ovarian cancer cells (PDC)", "assay": "cell growth inhibition ratio vs untreated control (CCK8); higher = stronger inhibition of cell viability", "settings": "10 µM; 48 h", "procedure": "as §1"}}, "note": "Where a name gives a salt, the structure may show the parent alone. Some of the results follow. Most values come without repeats; read them as rough."}
{"compound": "C=CC[C@@H]1/C=C(\\C)C[C@H](C)C[C@H](OC)[C@H]2O[C@@](O)(C(=O)C(=O)N3CCCC[C@H]3C(=O)O[C@H](/C(C)=C/[C@@H]3CC[C@@H](O)[C@H](OC)C3)[C@H](C)[C@@H](O)CC1=O)[C@H](C)C[C@@H]2OC", "note": "[Tacrolimus (FK506)]", "values": [{"measurement": "cell growth inhibition ratio", "setting": "[1]", "value": -5.93, "unit": "%"}, {"measurement": "cell growth inhibition ratio", "setting": "[2]", "value": -8.97, "unit": "%"}]}
{"compound": "N[C@@H](C=O)[C@@H](O)[C@H](O)[C@H](O)CO", "note": "[Glucosamine hydrochloride]", "values": [{"measurement": "cell growth inhibition ratio", "setting": "[1]", "value": 4.38, "unit": "%"}, {"measurement": "cell growth inhibition ratio", "setting": "[2]", "value": 2.28, "unit": "%"}]}
{"compound": "C[C@]12CCC(=O)C=C1CC[C@@H]1[C@@H]2CC[C@@]2(C)[C@H]1CC[C@]2(O)C(=O)CO", "note": "[Cortodoxone]", "values": [{"measurement": "cell growth inhibition ratio", "setting": "[1]", "value": 4.31, "unit": "%"}, {"measurement": "cell growth inhibition ratio", "setting": "[2]", "value": -11.6, "unit": "%"}]}
{"compound": "OC[C@H]1O[C@H](OCC2O[C@@H](O)[C@H](O)[C@@H](O)[C@@H]2O)[C@H](O)[C@@H](O)[C@H]1O", "note": "(stereo partly drawn) [Melibiose]", "values": [{"measurement": "cell growth inhibition ratio", "setting": "[1]", "value": -1.08, "unit": "%"}, {"measurement": "cell growth inhibition ratio", "setting": "[2]", "value": -9.5, "unit": "%"}]}
{"compound": "CC1(C)[C@@H](O)CC[C@]2(C)[C@H]3C(=O)C=C4[C@H]5C[C@@](C)(C(=O)O)CC[C@]5(C)CC[C@@]4(C)[C@]3(C)CC[C@@H]12", "note": "[Glycyrrhetinic acid(Enoxolone)]", "values": [{"measurement": "cell growth inhibition ratio", "setting": "[1]", "value": 6.62, "unit": "%"}, {"measurement": "cell growth inhibition ratio", "setting": "[2]", "value": -13.9, "unit": "%"}]}
{"compound": "O=c1c(O[C@@H]2O[C@H](CO)[C@@H](O)[C@H](O)[C@H]2O)c(-c2cc(O)c(O[C@@H]3O[C@H](CO)[C@@H](O)[C@H](O)[C@H]3O)c(O)c2)oc2cc(O)cc(O)c12", "note": "[Complanatoside A]", "values": [{"measurement": "cell growth inhibition ratio", "setting": "[1]", "value": -37.7, "unit": "%"}, {"measurement": "cell growth inhibition ratio", "setting": "[2]", "value": 2.67, "unit": "%"}]}
{"compound": "C/C(=C\\CO)CCC[C@H](C)CCC[C@H](C)CCCC(C)C", "values": [{"measurement": "cell growth inhibition ratio", "setting": "[1]", "value": 14.5, "unit": "%"}, {"measurement": "cell growth inhibition ratio", "setting": "[2]", "value": 10.2, "unit": "%"}]}
{"compound": "C=C1C[C@@]23CC[C@H]4[C@@](C)(CCC[C@@]4(C)C(=O)O[C@@H]4O[C@H](CO)[C@@H](O)[C@H](O)[C@H]4O)[C@@H]2CC[C@]1(O[C@@H]1O[C@H](CO)[C@@H](O)[C@H](O)[C@H]1O[C@@H]1O[C@H](CO)[C@@H](O)[C@H](O)[C@H]1O)C3", "note": "[Stevioside]", "values": [{"measurement": "cell growth inhibition ratio", "setting": "[1]", "value": 2.83, "unit": "%"}, {"measurement": "cell growth inhibition ratio", "setting": "[2]", "value": -7.07, "unit": "%"}]}
{"compound": "COc1ccc([C@@H]2OC[C@H]3[C@@H]2CO[C@@H]3c2ccc(O[C@@H]3O[C@H](CO)[C@@H](O)[C@H](O)[C@H]3O)c(OC)c2)cc1OC", "note": "[Forsythin]", "values": [{"measurement": "cell growth inhibition ratio", "setting": "[1]", "value": 25.3, "unit": "%"}, {"measurement": "cell growth inhibition ratio", "setting": "[2]", "value": -0.169, "unit": "%"}]}
{"compound": "O=c1c(O)c(-c2cc(O)c(O)c(O)c2)oc2cc(O)cc(O)c12", "note": "[Myricetin]", "values": [{"measurement": "cell growth inhibition ratio", "setting": "[1]", "value": 19.4, "unit": "%"}, {"measurement": "cell growth inhibition ratio", "setting": "[2]", "value": 8.71, "unit": "%"}]}
{"compound": "O=C(O)C=CC=Cc1ccccc1", "note": "[5-Phenyl-2,4-pentadienoic acid]", "values": [{"measurement": "cell growth inhibition ratio", "setting": "[1]", "value": 5.02, "unit": "%"}, {"measurement": "cell growth inhibition ratio", "setting": "[2]", "value": -5.68, "unit": "%"}]}
{"compound": "C[C@@H]1C(=O)O[C@H]2C[C@@]34[C@H]5C[C@@H](C(C)(C)C)[C@]36[C@@H](OC(=O)[C@@H]6O)O[C@@]4(C(=O)O5)[C@]21O", "note": "[Ginkgolide A]", "values": [{"measurement": "cell growth inhibition ratio", "setting": "[1]", "value": 29.4, "unit": "%"}, {"measurement": "cell growth inhibition ratio", "setting": "[2]", "value": -5.84, "unit": "%"}]}
{"compound": "OCc1ccc(O)cc1", "note": "[4-Hydroxybenzyl alcohol]", "values": [{"measurement": "cell growth inhibition ratio", "setting": "[1]", "value": 5.05, "unit": "%"}, {"measurement": "cell growth inhibition ratio", "setting": "[2]", "value": -7.35, "unit": "%"}]}
{"compound": "Cc1ncc(CO)c(CO)c1O", "note": "[Pyridoxine hydrochloride]", "values": [{"measurement": "cell growth inhibition ratio", "setting": "[1]", "value": 4.64, "unit": "%"}, {"measurement": "cell growth inhibition ratio", "setting": "[2]", "value": 14.2, "unit": "%"}]}
{"compound": "O=C(O)CCCC[C@@H]1SC[C@@H]2NC(=O)N[C@@H]21", "note": "[D-Biotin]", "values": [{"measurement": "cell growth inhibition ratio", "setting": "[1]", "value": 0.786, "unit": "%"}, {"measurement": "cell growth inhibition ratio", "setting": "[2]", "value": 13.5, "unit": "%"}]}
{"compound": "O=C(O)c1cc(O)c2c(c1)[C@H]([C@H]1c3cc(C(=O)O)cc(O)c3C(=O)c3c(O[C@@H]4O[C@H](CO)[C@@H](O)[C@H](O)[C@H]4O)cccc31)c1cccc(O[C@@H]3O[C@H](CO)[C@@H](O)[C@H](O)[C@H]3O)c1C2=O", "note": "[Sennoside A]", "values": [{"measurement": "cell growth inhibition ratio", "setting": "[1]", "value": -3.96, "unit": "%"}, {"measurement": "cell growth inhibition ratio", "setting": "[2]", "value": -10.9, "unit": "%"}]}
{"compound": "CN1CCc2cc3c(cc2C(=O)Cc2ccc4c(c2C1)OCO4)OCO3", "note": "[Protopine]", "values": [{"measurement": "cell growth inhibition ratio", "setting": "[1]", "value": 20.1, "unit": "%"}, {"measurement": "cell growth inhibition ratio", "setting": "[2]", "value": 8.19, "unit": "%"}]}
{"compound": "O=C1c2cccc(O)c2C(=O)c2c(O)cccc21", "note": "[Antrapurol]", "values": [{"measurement": "cell growth inhibition ratio", "setting": "[1]", "value": 22.6, "unit": "%"}, {"measurement": "cell growth inhibition ratio", "setting": "[2]", "value": 21, "unit": "%"}]}
{"compound": "CC(C)=CCC[C@](C)(O)[C@H]1CC[C@]2(C)[C@@H]1[C@H](O)C[C@@H]1[C@@]3(C)CC[C@H](O)C(C)(C)[C@@H]3CC[C@]12C", "note": "[(20S)-Protopanaxadiol]", "values": [{"measurement": "cell growth inhibition ratio", "setting": "[1]", "value": -3.52, "unit": "%"}, {"measurement": "cell growth inhibition ratio", "setting": "[2]", "value": -11.5, "unit": "%"}]}
{"compound": "COc1c2occc2c(OC)c2c(=O)cc(C)oc12", "note": "[Khellin]", "values": [{"measurement": "cell growth inhibition ratio", "setting": "[1]", "value": 3.65, "unit": "%"}, {"measurement": "cell growth inhibition ratio", "setting": "[2]", "value": 12.5, "unit": "%"}]}
{"compound": "O=c1ccc2ccc(O)cc2o1", "note": "[7-Hydroxycoumarin]", "values": [{"measurement": "cell growth inhibition ratio", "setting": "[1]", "value": 1.86, "unit": "%"}, {"measurement": "cell growth inhibition ratio", "setting": "[2]", "value": -9.36, "unit": "%"}]}
{"compound": "CCCCC[C@H](O)CC(=O)CCc1ccc(O)c(OC)c1", "note": "[6-Gingerol]", "values": [{"measurement": "cell growth inhibition ratio", "setting": "[1]", "value": 24.2, "unit": "%"}, {"measurement": "cell growth inhibition ratio", "setting": "[2]", "value": -1.7, "unit": "%"}]}
{"compound": "COc1ccc(-c2coc3cc(O)ccc3c2=O)cc1", "note": "[Formononetin]", "values": [{"measurement": "cell growth inhibition ratio", "setting": "[1]", "value": 11.4, "unit": "%"}, {"measurement": "cell growth inhibition ratio", "setting": "[2]", "value": -8.4, "unit": "%"}]}
{"compound": "C[C@@H]1CC[C@@]2(OC1)O[C@H]1C[C@H]3[C@@H]4CC=C5C[C@@H](O[C@@H]6O[C@H](CO)[C@@H](O[C@@H]7O[C@@H](CO)[C@H](O)[C@H]7O)[C@H](O)[C@H]6O[C@@H]6O[C@@H](C)[C@H](O)[C@@H](O)[C@H]6O)CC[C@]5(C)[C@H]4CC[C@]3(C)[C@H]1[C@@H]2C", "values": [{"measurement": "cell growth inhibition ratio", "setting": "[1]", "value": 93.3, "unit": "%"}, {"measurement": "cell growth inhibition ratio", "setting": "[2]", "value": 91.3, "unit": "%"}]}
